Experimental data published in PubChem BioAssay AID2685 (National Center for Advancing Translational Sciences (NCATS), 2010).
The other results are listed elsewhere or left out. The main result of the screen is listed elsewhere. These columns were measured beside it and carry no call. The list favours compounds with an active or inconclusive main result. Potencies come from curve fits of mixed quality, noted in brackets.

Experiment: qHTS Assay for Lipid Storage Modulators in Drosophila S3 Cells;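 on cell number change: cells counted by Cell Tracker Red CMTPX staining in the red channel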
Details: BODIPY lipid droplet fluorescence, 18-24 h; for cell number change: measured here: cell count max response, cells fed with added oleic acid
Outline: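 Laser-scanning cytometry quantifies lipid droplet accumulation (500–530 nm total intensity; droplet/cell object ratio) in oleic acid-fed (400 uM added) Drosophila S3 cells treated with a concentration series. 20 uM Triacsin C defined 100% inhibition.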

[1] = measured here: cell number channel AC50, cells fed with added oleic acid
[2] = measured here: lipid fluorescence (Fed channel) AC50, cells fed with added oleic acid

SMILES | cell number change | AC50 [1] | AC50 [2]
COc1cc(NC(=O)COC(=O)CCOc2ccc(C)cc2)cc(OC)c1 | 50.5% | 5800 nM [rising, partial curve, poor fit] | 
Nc1ccc(C(=O)N/N=C/c2sc(N3CCOCC3)nc2-c2ccccc2)cc1 |  |  | 2910 nM [rising, full curve]
O=C(CSc1nncs1)N1CCN(C(=O)c2ccco2)CC1 | -12.6% |  | 2590 nM [falling, full curve, poor fit]
O=c1c2ccccc2[nH]c(=S)n1Cc1cccnc1 | -6.87% |  | 651 nM [rising, full curve, poor fit]
CCN(CC)S(=O)(=O)c1cccc(C(=O)N/N=C/c2ccc(OC)c(O)c2)c1 | 24.2% |  | 
CCCc1cc(=O)oc2cc(C)cc(OC(=O)c3ccco3)c12 | -9.91% | 326 nM [falling, full curve, poor fit] | 
CCCCn1c(-c2csc3c2CCCC3)n[nH]c1=S | -3.31% |  | 
CC(=O)Nc1c(O)nc(SCC(=O)Nc2ccc(C(C)=O)cc2)[nH]c1=O | -10% |  | 
COc1cc2c(cc1OC)CN(C(=O)c1cc(Cl)nc(Cl)c1)CC2 |  |  | 731 nM [rising, partial curve, poor fit]
Cc1ccc(NC(=O)N(Cc2ccc3c(c2)OCO3)Cc2cc3cc4c(cc3[nH]c2=O)OCCO4)cc1 | 36.2% | 231 nM [rising, full curve] | 2310 nM [rising, full curve]
CCc1ccc(CN2C(=O)c3ccccc3C2C(=O)NC(C)CC)cc1 (stereo unspecified) | -29.9% |  | 16400 nM [falling, partial curve]
CCN(CC)C(=O)Oc1ccc2c(=O)c(-c3ccccc3)coc2c1 | 6.58% |  | 5170 nM [rising, full curve, poor fit]
Cn1c(=O)[nH]c(=O)c2c1nc(CN1CCN(c3cccc(Cl)c3)CC1)n2CCc1ccccc1 | -37.5% | 29100 nM [falling, single point] | 2310 nM [rising, partial curve]
CC(C)(C)n1nnnc1CN1CCSCC1 | -99.4% | 29100 nM [falling, single point] | 
NC(N)=NS(=O)(=O)c1ccc(NC(=S)NC(=O)c2sc3ccccc3c2Cl)cc1 | 9.76% |  | 
C=CCn1c(O)c(N=NC(=O)c2cccnc2)c2cc(Br)ccc21 | 36.8% | 6510 nM [falling, single point] | 3660 nM [falling, single point]
O=C(/C=N/O)Nc1ccccc1C(=O)O | -12.9% |  | 130 nM [falling, full curve]

Two compounds from above, showing only cell number change.
SMILES | cell number change
NC(N)=NS(=O)(=O)c1ccc(NC(=S)NC(=O)c2sc3ccccc3c2Cl)cc1 | 9.76%
C=CCn1c(O)c(N=NC(=O)c2cccnc2)c2cc(Br)ccc21 | 36.8%
